Among the data in PMC4226561 are binding values, retold here.

To fix the notation:
B1: CESA7 (cellulose synthase, secondary cell wall), MbYTH fusion (protein, UniProt Q9SWW6 1-1026)
chain: MEASAGLVAGSHNRNELVVIHNHEEPKPLKNLDGQFCEICGDQIGLTVEGDLFVACNECGFPACRPCYEYERREGTQNCPQCKTRYKRLRGSPRVEGDEDEEDIDDIEYEFNIEHEQDKHKHSAEAMLYGKMSYGRGPEDDENGRFPPVIAGGHSGEFPVGGGYGNGEHGLHKRVHPYPSSEAGSEGGWRERMDDWKLQHGNLGPEPDDDPEMGLIDEARQPLSRKVPIASSKINPYRMVIVARLVILAVFLRYRLLNPVHDALGLWLTSVICEIWFAVSWILDQFPKWFPIERETYLDRLSLRYEREGEPNMLAPVDVFVSTVDPLKEPPLVTSNTVLSILAMDYPVEKISCYVSDDGASMLTFESLSETAEFARKWVPFCKKFSIEPRAPEMYFTLKVDYLQDKVHPTFVKERRAMKREYEEFKVRINAQVAKASKVPLEGWIMQDGTPWPGNNTKDHPGMIQVFLGHSGGFDVEGHELPRLVYVSREKRPGFQHHKKAGAMNALVRVAGVLTNAPFMLNLDCDHYVNNSKAVREAMCFLMDPQIGKKVCYVQFPQRFDGIDTNDRYANRNTVFFDINMKGLDGIQGPVYVGTGCVFKRQALYGYEPPKGPKRPKMISCGCCPCFGRRRKNKKFSKNDMNGDVAALGGAEGDKEHLMSEMNFEKTFGQSSIFVTSTLMEEGGVPPSSSPAVLLKEAIHVISCGYEDKTEWGTELGWIYGSITEDILTGFKMHCRGWRSIYCMPKRPAFKGSAPINLSDRLNQVLRWALGSVEIFFSRHSPLWYGYKGGKLKWLERFAYANTTIYPFTSIPLLAYCILPAICLLTDKFIMPPISTFASLFFISLFMSIIVTGILELRWSGVSIEEWWRNEQFWVIGGISAHLFAVVQGLLKILAGIDTNFTVTSKATDDDDFGELYAFKWTTLLIPPTTVLIINIVGVVAGISDAINNGYQSWGPLFGKLFFSFWVIVHLYPFLKGLMGRQNRTPTIVVIWSVLLASIFSLLWVRIDPFVLKTKGPDTSKCGINC
B2: CESA8 (cellulose synthase, secondary cell wall), MbYTH fusion (protein, UniProt Q8LPK5 1-985)
chain: MMESRSPICNTCGEEIGVKSNGEFFVACHECSFPICKACLEYEFKEGRRICLRCGNPYDENVFDDVETKTSKTQSIVPTQTNNTSQDSGIHARHISTVSTIDSELNDEYGNPIWKNRVESWKDKKDKKSKKKKKDPKATKAEQHEAQIPTQQHMEDTPPNTESGATDVLSVVIPIPRTKITSYRIVIIMRLIILALFFNYRITHPVDSAYGLWLTSVICEIWFAVSWVLDQFPKWSPINRETYIDRLSARFEREGEQSQLAAVDFFVSTVDPLKEPPLITANTVLSILALDYPVDKVSCYVSDDGAAMLSFESLVETADFARKWVPFCKKYSIEPRAPEFYFSLKIDYLRDKVQPSFVKERRAMKRDYEEFKIRMNALVAKAQKTPEEGWTMQDGTSWPGNNTRDHPGMIQVFLGYSGARDIEGNELPRLVYVSREKRPGYQHHKKAGAENALVRVSAVLTNAPFILNLDCDHYVNNSKAVREAMCFLMDPVVGQDVCFVQFPQRFDGIDKSDRYANRNIVFFDVNMRGLDGIQGPVYVGTGTVFRRQALYGYSPPSKPRILPQSSSSSCCCLTKKKQPQDPSEIYKDAKREELDAAIFNLGDLDNYDEYDRSMLISQTSFEKTFGLSTVFIESTLMENGGVPDSVNPSTLIKEAIHVISCGYEEKTEWGKEIGWIYGSITEDILTGFKMHCRGWRSIYCMPLRPAFKGSAPINLSDRLHQVLRWALGSVEIFLSRHCPLWYGCSGGRLKLLQRLAYINTIVYPFTSLPLVAYCTLPAICLLTGKFIIPTLSNLASMLFLGLFISIILTSVLELRWSGVSIEDLWRNEQFWVIGGVSAHLFAVFQGFLKMLAGLDTNFTVTSKTADDLEFGELYIVKWTTLLIPPTSLLIINLVGVVAGFSDALNKGYEAWGPLFGKVFFAFWVILHLYPFLKGLMGRQNRTPTIVILWSILLASVFSLVWVRINPFVSKTDTTSLSLNCLLIDC
B3: CESA4 (cellulose synthase, secondary cell wall), MbYTH fusion (protein, UniProt Q84JA6 1-1049)
chain: MEPNTMASFDDEHRHSSFSAKICKVCGDEVKDDDNGQTFVACHVCVYPVCKPCYEYERSNGNKCCPQCNTLYKRHKGSPKIAGDEENNGPDDSDDELNIKYRQDGSSIHQNFAYGSENGDYNSKQQWRPNGRAFSSTGSVLGKDFEAERDGYTDAEWKERVDKWKARQEKRGLVTKGEQTNEDKEDDEEEYLDAEARQPLWRKVPISSSKISPYRIVIVLRLVILVFFFRFRILTPAKDAYPLWLISVICEIWFALSWILDQFPKWFPINRETYLDRLSMRFERDGEKNKLAPVDVFVSTVDPLKEPPIITANTILSILAVDYPVNKVSCYVSDDGASMLLFDTLSETSEFARRWVPFCKKYNVEPRAPEFYFSEKIDYLKDKVQTTFVKDRRAMKREYEEFKVRINALVAKAQKKPEEGWVMQDGTPWPGNNTRDHPGMIQVYLGKEGAFDIDGNELPRLVYVSREKRPGYAHHKKAGAMNAMVRVSAVLTNAPFMLNLDCDHYINNSKAIRESMCFLMDPQLGKKLCYVQFPQRFDGIDLNDRYANRNIVFFDINMRGLDGIQGPVYVGTGCVFNRPALYGYEPPVSEKRKKMTCDCWPSWICCCCGGGNRNHKSDSSKKKSGIKSLFSKLKKKTKKKSDDKTMSSYSRKRSSTEAIFDLEDIEEGLEGYDELEKSSLMSQKNFEKRFGMSPVFIASTLMENGGLPEATNTSSLIKEAIHVISCGYEEKTEWGKEIGWIYGSVTEDILTGFRMHCRGWKSVYCMPKRPAFKGSAPINLSDRLHQVLRWALGSVEIFFSRHCPLWYAWGGKLKILERLAYINTIVYPFTSIPLLAYCTIPAVCLLTGKFIIPTINNFASIWFLALFLSIIATAILELRWSGVSINDLWRNEQFWVIGGVSAHLFAVFQGLLKVLFGVDTNFTVTSKGASDEADEFGDLYLFKWTTLLIPPTTLIILNMVGVVAGVSDAINNGYGSWGPLFGKLFFAFWVIVHLYPFLKGLMGRQNRTPTIVVLWSILLASIFSLVWVRIDPFLPKQTGPLLKQCGVDC

No constants are given. Whether binding was seen depends on the method and setting. Some binding calls cover weakened binding; strength is not graded here. Where a sequence is shown, tags or fusion partners need not be part of it.

The first experiment concerns the target T1, KORRIGAN1 (KOR1), complete protein (AA 1 to 621), MbYTH fusion (Arabidopsis thaliana) (UniProt Q38890).
T1 sequence: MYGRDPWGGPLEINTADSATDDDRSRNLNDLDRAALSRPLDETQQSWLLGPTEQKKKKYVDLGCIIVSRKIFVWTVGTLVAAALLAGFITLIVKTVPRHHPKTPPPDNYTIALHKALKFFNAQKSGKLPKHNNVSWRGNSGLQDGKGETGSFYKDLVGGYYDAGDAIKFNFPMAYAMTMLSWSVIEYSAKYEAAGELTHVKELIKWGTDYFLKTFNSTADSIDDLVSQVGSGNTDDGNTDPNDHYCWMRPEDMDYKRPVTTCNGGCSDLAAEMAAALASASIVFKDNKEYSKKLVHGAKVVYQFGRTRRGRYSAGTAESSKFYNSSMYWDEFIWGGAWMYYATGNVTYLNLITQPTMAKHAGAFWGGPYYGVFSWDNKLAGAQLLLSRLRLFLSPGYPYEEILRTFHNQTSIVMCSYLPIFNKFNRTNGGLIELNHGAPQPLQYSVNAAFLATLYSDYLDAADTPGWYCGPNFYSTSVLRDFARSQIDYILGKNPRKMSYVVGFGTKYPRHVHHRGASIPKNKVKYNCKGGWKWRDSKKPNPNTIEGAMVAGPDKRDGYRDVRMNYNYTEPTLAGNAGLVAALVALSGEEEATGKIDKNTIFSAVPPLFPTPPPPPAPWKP
As to the kind of experiment: two-hybrid; split-ubiquitin membrane-based yeast two-hybrid (MbYTH) in S. cerevisiae NMY51; bait fused to Cub-TF, prey to NubG; 100 colonies of each combination spotted on selective medium with 3-AT, 30°C, three days, grown spots counted; called 'in vitro' by the paper.
On to B1, for which the binding result is on record as “no binding”.

Take B2: the binding result is “binds”.

Turning to B3, the binding entry is reported as “binds”.

A further experiment concerns the target T2, KOR1TMD, only the transmembrane domain of KOR1 (AA 70 to 94), MbYTH fusion (Arabidopsis thaliana) (UniProt Q38890).
T2 sequence: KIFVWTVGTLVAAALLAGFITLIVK
The description is as above.
For B1, the binding result was “no binding”.

On to B2, for which the binding result is recorded as “binds”.

Turning to B3, the binding entry is “binds”.

Another experiment concerns the target T3, KOR1C, transmembrane domain plus the C-terminal part of KOR1 (AA 70 to 621), MbYTH fusion (Arabidopsis thaliana) (UniProt Q38890).
T3 sequence: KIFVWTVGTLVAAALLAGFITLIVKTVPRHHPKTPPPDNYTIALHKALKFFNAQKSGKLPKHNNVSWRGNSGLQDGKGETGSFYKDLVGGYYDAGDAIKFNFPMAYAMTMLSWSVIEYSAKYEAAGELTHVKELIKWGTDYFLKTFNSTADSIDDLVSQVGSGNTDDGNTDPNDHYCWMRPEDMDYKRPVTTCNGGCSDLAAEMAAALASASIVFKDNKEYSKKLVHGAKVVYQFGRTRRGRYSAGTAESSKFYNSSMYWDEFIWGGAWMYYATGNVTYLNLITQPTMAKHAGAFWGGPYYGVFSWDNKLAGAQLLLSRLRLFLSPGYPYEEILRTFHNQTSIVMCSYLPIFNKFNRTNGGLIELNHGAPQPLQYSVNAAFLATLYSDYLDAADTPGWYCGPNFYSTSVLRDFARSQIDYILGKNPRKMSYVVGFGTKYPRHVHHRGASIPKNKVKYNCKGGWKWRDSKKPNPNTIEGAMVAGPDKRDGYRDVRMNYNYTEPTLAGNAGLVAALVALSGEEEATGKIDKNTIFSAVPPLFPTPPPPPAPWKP
Described as above.
Turning to B1, the binding result is “no binding”.

On to B2, for which the binding result was “binds”.

For the molecule B3, the binding result is reported as “binds”.

The next experiment addresses T4, KOR1N, N-terminal part of KOR1 with the transmembrane domain (AA 1 to 94), MbYTH fusion (Arabidopsis thaliana) (UniProt Q38890).
T4 sequence: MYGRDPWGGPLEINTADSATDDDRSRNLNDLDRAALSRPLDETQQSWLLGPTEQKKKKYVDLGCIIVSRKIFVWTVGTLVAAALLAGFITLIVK
Described as above.
B1: the binding result was “no binding”.

On to B2, for which the binding entry is given as “binds”.

In the case of B3, the binding result was “binds”.
